According to US20070060550A1, “Methods of determining compounds useful in the treatment of bipolar disorder and methods of treating such disorders” (priority 2005, published 2007):
At least one compound was matched to its structure with a doubt left.

Molecular target: T1, prolyl oligopeptidase (Homo sapiens, UniProt P48147)
T1 construct: poly-histidine; made in house; host or cells: E. coli
T1 sequence (P48147 1-710): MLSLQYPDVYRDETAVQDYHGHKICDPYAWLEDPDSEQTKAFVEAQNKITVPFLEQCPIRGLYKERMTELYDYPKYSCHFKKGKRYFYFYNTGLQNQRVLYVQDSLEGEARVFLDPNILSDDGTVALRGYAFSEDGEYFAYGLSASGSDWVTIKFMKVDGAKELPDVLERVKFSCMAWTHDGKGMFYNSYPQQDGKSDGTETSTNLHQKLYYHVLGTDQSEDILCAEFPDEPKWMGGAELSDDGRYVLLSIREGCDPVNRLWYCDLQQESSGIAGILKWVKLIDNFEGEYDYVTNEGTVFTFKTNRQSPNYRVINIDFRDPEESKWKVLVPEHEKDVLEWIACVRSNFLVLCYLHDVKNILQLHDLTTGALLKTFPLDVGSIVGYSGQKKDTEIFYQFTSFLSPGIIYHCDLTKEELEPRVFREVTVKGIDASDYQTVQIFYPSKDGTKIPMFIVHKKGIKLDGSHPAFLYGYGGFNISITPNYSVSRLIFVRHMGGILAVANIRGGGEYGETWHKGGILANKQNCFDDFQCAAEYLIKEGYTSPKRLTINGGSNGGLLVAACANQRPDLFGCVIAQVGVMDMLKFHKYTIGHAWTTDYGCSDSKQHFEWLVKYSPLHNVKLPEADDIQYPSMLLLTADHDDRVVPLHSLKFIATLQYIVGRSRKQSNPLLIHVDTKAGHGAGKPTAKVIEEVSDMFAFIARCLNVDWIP
Assay: prolyl oligopeptidase fluorogenic enzyme assay (Z-Gly-Pro-aminomethyl coumarin)
Type: biochemical
Conditions: FIG. 9
Text: For inhibitors of the enzymatic activity on the enzyme prolyl oligopeptidase, the relevant references for several assays can be found in Cheng et al., MCN 2005. Common assays use a peptide-based substrate which, when cleaved from a prorlyl bond, releases a fluorogenic signal that can be quantitated by spectrocopy.
Conveniently, the effect of the candidate compounds that inhibit enzyme activity can be assessed using a labeled substrate that is cleaved or otherwise modified by prolyl oligopeptidase to produce a detachable change such as release of a label. Thus, it is possible to screen candidate inhibitors by measuring the change in the signal from the label caused by the action of prolyl oligopeptidase in the presence and absence of a candidate inhibitor compound. A preferred substrate may be one in which a fluorescent label is employed, such as Z-Gly-Pro-aminomethyl coumarin.
Conveniently, prolyl oligopeptidase enzyme assays can be carried out using a standard fluorogenic assay with the synthetic substrate Z-Gly-Pro-aminomethyl coumarin obtained from Bachem, Switzerland. […]

Cc1cc2c(s1)Nc1ccccc1N=C2N1CCN(C)CC1 [olanzepine, olanzapine]
effect on prolyl oligopeptidase proteolytic activity: Only valproic acid inhibited the enzyme
